Measurements taken from article PMC6203705.
These are yes or no findings as the source states them, for the method shown. In cells and extracts the contact can be indirect. Binding calls can cover weak binding; strength is not graded here.

Chains of the proteins cited; added tags and fusions are not shown. Lines headed by an entry give the natural chain unless they say otherwise; changes in a name come on top.
UniProt Q9UN81: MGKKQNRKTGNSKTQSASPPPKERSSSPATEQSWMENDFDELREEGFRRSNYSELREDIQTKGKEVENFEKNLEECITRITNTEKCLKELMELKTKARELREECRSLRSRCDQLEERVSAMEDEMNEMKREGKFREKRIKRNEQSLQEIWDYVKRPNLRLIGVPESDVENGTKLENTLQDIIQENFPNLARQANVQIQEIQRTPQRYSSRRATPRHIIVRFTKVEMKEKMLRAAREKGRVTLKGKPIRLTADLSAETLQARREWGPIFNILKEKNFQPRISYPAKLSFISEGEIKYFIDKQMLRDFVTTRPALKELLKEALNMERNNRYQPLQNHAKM
UniProt Q9NS91: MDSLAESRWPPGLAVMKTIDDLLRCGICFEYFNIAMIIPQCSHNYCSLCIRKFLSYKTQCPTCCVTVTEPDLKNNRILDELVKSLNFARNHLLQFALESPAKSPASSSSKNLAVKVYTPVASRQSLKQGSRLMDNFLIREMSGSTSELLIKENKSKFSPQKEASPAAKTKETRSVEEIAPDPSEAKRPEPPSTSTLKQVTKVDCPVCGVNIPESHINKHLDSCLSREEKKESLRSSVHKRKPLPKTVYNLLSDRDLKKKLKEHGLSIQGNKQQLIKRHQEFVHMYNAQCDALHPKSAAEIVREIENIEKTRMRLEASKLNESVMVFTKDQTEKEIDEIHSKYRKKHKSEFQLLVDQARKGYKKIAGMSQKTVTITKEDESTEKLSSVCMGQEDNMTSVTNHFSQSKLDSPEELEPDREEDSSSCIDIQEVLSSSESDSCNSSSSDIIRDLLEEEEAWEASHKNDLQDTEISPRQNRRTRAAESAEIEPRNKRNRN

Biological target: HA-tagged L1 ORF1p (human) (UniProt Q9UN81)
Test: co-IP; lysates of 293T cells co-expressing Myc-tagged Rad18 (WT, ∆6BD or ∆C2) and HA-tagged L1 ORF1p; precipitated with anti-HA (3F10) and protein-G-Sepharose, 4 °C; blot with anti-Myc-tag; lysis buffer 10 mM Tris-HCl pH 8.0, 150 mM NaCl, 1 mM EDTA, 0.1% NP-40

Row | binding | Substance
1 | no binding | Myc-tagged Rad18 ∆6BD (from UniProt Q9NS91)
2 | binds | Myc-tagged Rad18 ∆C2 (from UniProt Q9NS91)
